Data reported in patent publication US9988359B2, “Herbicidally active benzoic acid amides” (BAYER CROPSCIENCE AKTIENGESELLSCHAFT, priority 2014, dated 2018).
Some of these results come from one statement about several compounds together.

Experiments:
Assay in all cases: Pre-emergence herbicidal action against harmful plants
Format in all cases: in vivo
Conditions in all cases: application rate 320 g/ha, scored visually after 3 weeks, 100% = plants have died, 0% = like control plants
Matricaria inodora = tested on: Matricaria inodora
Abutilon theophrasti = tested on: Abutilon theophrasti
Amaranthus retroflexus = tested on: Amaranthus retroflexus

CCc1ccc(C(=O)Nc2ncnn2C)c(CC)c1S(=O)(=O)CC [Example 1-066]
at least 80%: efficacy against Matricaria inodora (Matricaria inodora) | efficacy against Abutilon theophrasti (Abutilon theophrasti) | efficacy against Amaranthus retroflexus (Amaranthus retroflexus)

CCS(=O)(=O)c1c(C)ccc(C(=O)Nc2nonc2C)c1C [Example 2-006]
at least 80%: efficacy against Matricaria inodora (Matricaria inodora) | efficacy against Abutilon theophrasti (Abutilon theophrasti) | efficacy against Amaranthus retroflexus (Amaranthus retroflexus)

CCc1ccc(C(=O)Nc2nonc2C)c(C)c1[S+](C)[O-] (stereo not drawn) [Example 2-017]
at least 80%: efficacy against Matricaria inodora (Matricaria inodora) | efficacy against Abutilon theophrasti (Abutilon theophrasti) | efficacy against Amaranthus retroflexus (Amaranthus retroflexus)

CCc1ccc(C(=O)Nc2nonc2C)c(C)c1S(C)(=O)=O [Example 2-018]
at least 80%: efficacy against Matricaria inodora (Matricaria inodora) | efficacy against Abutilon theophrasti (Abutilon theophrasti) | efficacy against Amaranthus retroflexus (Amaranthus retroflexus)

CCc1c(C(=O)Nc2nonc2C)ccc(C)c1S(=O)(=O)CC [Example 2-051]
at least 80%: efficacy against Matricaria inodora (Matricaria inodora) | efficacy against Abutilon theophrasti (Abutilon theophrasti) | efficacy against Amaranthus retroflexus (Amaranthus retroflexus)

CCc1ccc(C(=O)Nc2nonc2C)c(CC)c1S(C)(=O)=O [Example 2-063]
at least 80%: efficacy against Matricaria inodora (Matricaria inodora) | efficacy against Abutilon theophrasti (Abutilon theophrasti) | efficacy against Amaranthus retroflexus (Amaranthus retroflexus)

CCc1ccc(C(=O)Nc2nonc2C)c(CC)c1[S+]([O-])CC (stereo not drawn) [Example 2-065]
at least 80%: efficacy against Matricaria inodora (Matricaria inodora) | efficacy against Abutilon theophrasti (Abutilon theophrasti) | efficacy against Amaranthus retroflexus (Amaranthus retroflexus)

CCc1ccc(C(=O)Nc2nonc2C)c(CC)c1S(=O)(=O)CC [Example 2-066]
at least 80%: efficacy against Matricaria inodora (Matricaria inodora) | efficacy against Abutilon theophrasti (Abutilon theophrasti) | efficacy against Amaranthus retroflexus (Amaranthus retroflexus)

CCc1ccc(C(=O)Nc2nonc2Cl)c(C)c1[S+](C)[O-] (stereo not drawn) [Example 3-017]
at least 80%: efficacy against Matricaria inodora (Matricaria inodora) | efficacy against Abutilon theophrasti (Abutilon theophrasti) | efficacy against Amaranthus retroflexus (Amaranthus retroflexus)

CCc1ccc(C(=O)Nc2nonc2Cl)c(C)c1S(C)(=O)=O [Example 3-018]
at least 80%: efficacy against Matricaria inodora (Matricaria inodora) | efficacy against Abutilon theophrasti (Abutilon theophrasti) | efficacy against Amaranthus retroflexus (Amaranthus retroflexus)

CCc1c(C(=O)Nc2nonc2Cl)ccc(C)c1S(=O)(=O)CC [Example 3-051]
at least 80%: efficacy against Matricaria inodora (Matricaria inodora) | efficacy against Abutilon theophrasti (Abutilon theophrasti) | efficacy against Amaranthus retroflexus (Amaranthus retroflexus)

CCc1ccc(C(=O)Nc2nonc2Cl)c(CC)c1[S+](C)[O-] (stereo not drawn) [Example 3-062]
at least 80%: efficacy against Matricaria inodora (Matricaria inodora) | efficacy against Abutilon theophrasti (Abutilon theophrasti) | efficacy against Amaranthus retroflexus (Amaranthus retroflexus)

CCc1ccc(C(=O)Nc2nonc2Cl)c(CC)c1S(C)(=O)=O [Example 3-063]
at least 80%: efficacy against Matricaria inodora (Matricaria inodora) | efficacy against Abutilon theophrasti (Abutilon theophrasti) | efficacy against Amaranthus retroflexus (Amaranthus retroflexus)

CCc1ccc(C(=O)Nc2nonc2Cl)c(CC)c1[S+]([O-])CC (stereo not drawn) [Example 3-065]
at least 80%: efficacy against Matricaria inodora (Matricaria inodora) | efficacy against Abutilon theophrasti (Abutilon theophrasti) | efficacy against Amaranthus retroflexus (Amaranthus retroflexus)

CCc1ccc(C(=O)Nc2nonc2Cl)c(CC)c1S(=O)(=O)CC [Example 3-066]
at least 80%: efficacy against Matricaria inodora (Matricaria inodora) | efficacy against Abutilon theophrasti (Abutilon theophrasti) | efficacy against Amaranthus retroflexus (Amaranthus retroflexus)

CCS(=O)(=O)c1c(C)ccc(C(=O)Nc2nnc(C)o2)c1C [Example 4-006]
at least 80%: efficacy against Matricaria inodora (Matricaria inodora) | efficacy against Abutilon theophrasti (Abutilon theophrasti) | efficacy against Amaranthus retroflexus (Amaranthus retroflexus)

CSc1c(C(C)C)ccc(C(=O)Nc2nnc(C)o2)c1C [Example 4-031]
at least 80%: efficacy against Matricaria inodora (Matricaria inodora) | efficacy against Abutilon theophrasti (Abutilon theophrasti) | efficacy against Amaranthus retroflexus (Amaranthus retroflexus)

Cc1nnc(NC(=O)c2ccc(C(C)C)c([S+](C)[O-])c2C)o1 (stereo not drawn) [Example 4-032]
at least 80%: efficacy against Matricaria inodora (Matricaria inodora) | efficacy against Abutilon theophrasti (Abutilon theophrasti) | efficacy against Amaranthus retroflexus (Amaranthus retroflexus)

CCc1c(C(=O)Nc2nnc(C)o2)ccc(C)c1S(=O)(=O)CC [Example 4-051]
at least 80%: efficacy against Matricaria inodora (Matricaria inodora) | efficacy against Abutilon theophrasti (Abutilon theophrasti) | efficacy against Amaranthus retroflexus (Amaranthus retroflexus)

CCc1ccc(C(=O)Nc2nnc(C)o2)c(CC)c1S(=O)(=O)CC [Example 4-066]
at least 80%: efficacy against Matricaria inodora (Matricaria inodora) | efficacy against Abutilon theophrasti (Abutilon theophrasti) | efficacy against Amaranthus retroflexus (Amaranthus retroflexus)
